Measured values from PubChem BioAssay AID2685 (National Center for Advancing Translational Sciences (NCATS), 2010).
The other results are listed elsewhere or left out. These are further read-outs of the screen, such as a control signal, another cell line or another target. No call is given for them. The list favours compounds with an active or inconclusive main result. Words in brackets tell the shape of the fitted curve; partial curves, single points and poor fits give uncertain potencies.

Test: qHTS Assay for Lipid Storage Modulators in Drosophila S3 Cells;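 as to cell number change: cells counted by Cell Tracker Red CMTPX staining in the red channel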
Details: BODIPY lipid droplet fluorescence, 18-24 h; for cell number change: measured here: cell count max response, cells fed with added oleic acid
Method in brief: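 Drosophila S3 cells got compounds at several concentrations plus oleic acid (400 uM solution). Laser-scanning cytometry with 488 nm excitation read lipid droplets at 500-530 nm and cells at 575-640 nm. Percent activity was relative to 20 uM Triacsin C.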

[1] = measured here: lipid fluorescence (Fed channel) AC50, cells fed with added oleic acid
[2] = measured here: cell number channel AC50, cells fed with added oleic acid

Compound | cell number change | AC50 [1] | AC50 [2]
COc1ccc(/C=C2\N=C(c3ccccc3Cl)NC2=O)cc1 | 14.5% | – | –
COc1ccccc1NC(=O)CN1CCN(C2c3ccccc3-c3ccccc32)CC1 | – | 18.4 µM [falling, single point] | –
Cc1cccc(N2CCN(Cc3ccoc3)CC2)c1C | -10.3% | – | –
CCOC(=O)[C@@H]1[C@H]2COc3ccc(Br)cc3[C@@H]2N2C(=O)N(c3ccc(C(F)(F)F)cc3)C(=O)[C@@]12C | 6.59% | – | –
COc1ccccc1CNC(=O)CN1C(=O)NC2(CCCC2)C1=O | -12% | 14.6 µM [falling, partial curve] | –
COc1ccc(NC(=O)COC(=O)CCCc2c[nH]c3ccccc23)cc1OC | 59.3% | – | –
O=C(CN1CCc2cc3c(cc2C1)OCCCO3)Nc1ccccc1 | -33.9% | 20.6 µM [falling, partial curve] | 29.1 µM [falling, single point]
CC(=O)c1ccc(N2CCN(C(=O)c3ccc(NC4=NC5CS(=O)(=O)CC5S4)cc3)CC2)cc1 (stereo not given) | 2.88% | 0.00517 µM [rising, full curve, poor fit] | –
O=C(N[C@@H](Cc1ccccc1)C(=O)CCl)OCc1ccccc1 | -55.1% | 29.1 µM [falling, single point] | 29.1 µM [falling, single point]
COC(=O)C1=CN(CC2CCCO2)C=C(C(=O)OC)C1c1cc(OC)c(OC)c(OC)c1 (stereo not given) | -18.7% | – | –
CCOC(=O)C1CCCN(C(=O)c2cn(CC)c3ccc(S(=O)(=O)N4CCCC4)cc3c2=O)C1 (stereo not given) | -26.8% | 0.326 µM [falling, single point] | –
O=C(NCc1ccc(F)cc1)C1CCN(S(=O)(=O)N2CCCCC2)CC1 | -15.1% | 29.1 µM [falling, single point] | –
Cc1ccc(S(=O)(=O)CCSc2nc(C)cc(C(F)(F)F)c2C#N)cc1 | – | 23.1 µM [falling, partial curve] | –
Oc1ccc(-c2onc3ccc(Cl)cc23)cc1 | -11.1% | 0.00461 µM [rising, full curve, poor fit] | –
O=C(O)c1cccc(NCc2ccncc2)c1 | -82.2% | 29.1 µM [falling, single point] | 29.1 µM [falling, single point]
Cc1cc(C)c(S(=O)(=O)NCc2cccnc2)c(C)c1 | -21.6% | – | –
CC(=O)N(c1cccc(C(F)(F)F)c1)c1nc(/C=C/C(=O)O)cs1 | -2.57% | 3.66 µM [falling, single point] | –
Cc1nnnn1/C(=C\c1ccccc1)C(=O)OCC(=O)Nc1ccc(Cl)cc1F | -59.6% | – | 9.2 µM [falling, partial curve]
CCOc1ccccc1NC(=O)Cn1c(=O)n(CCC(=O)NC2CCCC2)c(=O)c2ccccc21 | – | 0.058 µM [rising, full curve, poor fit] | –
CC(C(=O)Nc1ccc2c(c1)OCCO2)N1CCN(C(=O)c2ccco2)CC1 (stereo not given) | -6.08% | 32.6 µM [rising, single point] | –
CCSc1nnc2c(n1)[nH]c1c(C)cccc12 | – | 16.4 µM [falling, partial curve, poor fit] | –

Single records, from the list above. Order of values: cell number change | AC50 [1] | AC50 [2]
Cc1ccc(S(=O)(=O)CCSc2nc(C)cc(C(F)(F)F)c2C#N)cc1 in the list: – | 23.1 µM [falling, partial curve] | –
CC(C(=O)Nc1ccc2c(c1)OCCO2)N1CCN(C(=O)c2ccco2)CC1 (stereo not given) in the list: -6.08% | 32.6 µM [rising, single point] | –
COC(=O)C1=CN(CC2CCCO2)C=C(C(=O)OC)C1c1cc(OC)c(OC)c(OC)c1 (stereo not given) in the list: -18.7% | – | –
O=C(O)c1cccc(NCc2ccncc2)c1 in the list: -82.2% | 29.1 µM [falling, single point] | 29.1 µM [falling, single point]

Continuation.

Compound | cell number change | AC50 [1] | AC50 [2]
CCOC(=O)c1ccc[n+](CC(=O)Nc2cc(C(F)(F)F)ccc2Cl)c1 | -99.2% | 23.1 µM [falling, partial curve] | 18.4 µM [falling, single point]
COc1ccc(-n2nc(C(=O)NCC(=O)NCCCN3CCOCC3)c3ccccc3c2=O)cc1Cl | 35.9% | – | 0.259 µM [rising, full curve, poor fit]
Cc1ccc(C2C(=O)N(C3CCCC3)CC(=O)N2C2CCCCC2)cc1 (stereo not given) | -12.9% | 18.4 µM [rising, single point] | –
Cc1ccc(S(=O)(=O)N2CCN(C(=O)COC(=O)CCOc3ccc(C(C)(C)C)cc3)CC2)cc1 | 56.6% | – | 32.6 µM [rising, partial curve, poor fit]
CC(C)(C)SCCNC(=O)Nc1ccccc1 | 63.2% | 0.731 µM [falling, single point] | 16.4 µM [rising, single point]
Cc1cccc(OCC(=O)NCC(=O)N=Nc2c(O)[nH]c3ccc([N+](=O)[O-])cc23)c1 | 0.901% | 29.1 µM [falling, single point] | –
O=C(O)c1cccnc1SCc1cn2cc(Cl)ccc2n1 | -16.6% | 1.3 µM [falling, full curve] | –
C=CCn1c(SCC(=O)NCC2CCCO2)nc2scc(-c3ccco3)c2c1=O (stereo not given) | – | – | 4.61 µM [rising, partial curve, poor fit]
CCOc1cc(NC(=S)Nc2cccc(OC)c2)c(OCC)cc1NC(=O)c1ccc(C)cc1 | 10.6% | 18.4 µM [rising, single point] | –
CC(C)CN1C(=O)/C(=C(/C#N)C(=O)NC2CCCCC2)c2ccccc21 | 1.34% | 3.26 µM [rising, single point] | –
O=C(c1ccco1)N1CCN(C(=O)c2cc3cc([N+](=O)[O-])ccc3oc2=O)CC1 | 65.5% | – | –
Cc1ccc(S(=O)(=O)NC2(C(F)(F)F)C(=O)Nc3c2c(=O)[nH]c(=O)n3-c2ccccc2)cc1 (stereo not given) | 7.42% | 18.4 µM [rising, single point] | –
NS(=O)(=O)c1ccc(N/N=C/C=C/c2ccccc2[N+](=O)[O-])cc1 | 11.3% | – | –
COc1ccc(/C=N/NC(=O)c2ccc(N(C)S(=O)(=O)c3ccccc3)cc2)cc1OC | 18.6% | 1.64 µM [rising, partial curve] | –
COc1ccc(CC(=O)NNC(=O)c2cccs2)cc1OC | -48% | 29.1 µM [falling, single point] | 29.1 µM [falling, single point]
Cc1nc(CNS(=O)(=O)c2ccc3c(c2)OCCO3)cs1 | -45.7% | 0.517 µM [falling, full curve] | 0.58 µM [falling, full curve]
CN(C)c1ccc(/C=C2\NC(=S)N(Cc3ccccc3)C2=O)cc1 | -11.7% | 29.1 µM [falling, single point] | –
Cc1ccc(NC(=O)C(C)OC(=O)Cc2c[nH]c3ccccc23)cc1 (stereo not given) | 41.7% | 3.66 µM [rising, full curve] | 2.91 µM [rising, full curve]
CCOC(=O)c1ccc(NC(=O)N2C3CCCC2CC(NC(C)=O)C3)cc1 (stereo not given) | 2.84% | 0.517 µM [rising, full curve, poor fit] | –
NC1=NC(=O)CC(C(=O)NCCc2ccccc2)S1 (stereo not given) | 14.5% | – | –
CCN(CC(=O)Nc1c(F)cccc1F)C(=O)c1ccc(C(F)(F)F)cc1 | 36.9% | – | 8.2 µM [rising, partial curve, poor fit]

Compound | cell number change | AC50 [1] | AC50 [2]
O=C1/C(=C/c2cccc(Br)c2)SC(=S)N1/N=C/c1cc([N+](=O)[O-])ccc1O | -4.47% | – | –
Cc1ccc(-c2nn(C)c(=O)c3ccccc23)cc1CNC(=O)c1ccco1 | -20.7% | 25.9 µM [rising, single point] | –
Cc1cccc(NC(=O)c2ccc(S(=O)(=O)NCc3ccco3)cc2)n1 | -13.9% | 1.46 µM [rising, partial curve] | –
CCOC(=O)C1CCN(C(=O)COc2ccc(S(=O)(=O)N3CCOCC3)cc2)CC1 | -12% | – | –
C=C(C)COc1ccc(-c2nc(N)ncc2-c2ccc(OC)c(OC)c2)c(O)c1 | -4.26% | 0.13 µM [rising, full curve, poor fit] | –
NC(=O)COC(=O)c1ccc(Oc2ccccc2)cc1 | 17.3% | – | –
COC(=O)c1ccccc1NC(=O)NCc1cccnc1 | 8.11% | – | –
CC(=O)NC(NC(=S)N1CCCCCC1)C(Cl)(Cl)Cl (stereo not given) | -32.1% | – | –
N/C(=N\N=C\c1ccc2c(c1)OCO2)c1nonc1N | 36% | 2.59 µM [rising, partial curve] | 16.4 µM [rising, single point]
O=C1C2CCCCC2C(=O)N1c1ccc(NC2CCCCC2)c([N+](=O)[O-])c1 (stereo not given) | -11.1% | 18.4 µM [falling, single point] | –
CCOC(=O)[C@H]1[C@H]2COc3ccccc3[C@@H]2N2C(=O)c3cc(Br)ccc3NC(=O)[C@@]12C | 18.9% | 0.00411 µM [rising, full curve, poor fit] | –
O=C(O)c1cccc(N2CCCC2=O)c1 | 17.8% | – | –
CC(CCc1ccco1)NC(=O)CCc1nnc2ccc(NCc3ccccc3)nn12 (stereo not given) | – | – | 1.3 µM [falling, full curve, poor fit]
COC(=O)CC(NC(=O)c1ccco1)c1cccc2ccccc12 (stereo not given) | 23.9% | 6.51 µM [falling, single point] | –
CC(=O)Nc1ccc(SCC(=O)c2cc(C)n(C)c2C)cc1 | – | 4.61 µM [rising, partial curve] | 4.61 µM [rising, partial curve]
C=CCOC(=O)C1=C[C@@H](c2ccc(Br)cc2)C[C@@H](OCc2ccc(CO)cc2)O1 | 9.87% | 0.651 µM [rising, full curve, poor fit] | –
Cn1c(=O)cc(OCCCC(=O)NCCCN2CCN(Cc3ccccc3)CC2)c2ccccc21 | -2.97% | – | –
N#C/C(=C/c1ccc(-c2ccccc2[N+](=O)[O-])o1)C(=O)NCCN1CCCCC1 | 22.1% | 29.1 µM [rising, single point] | –
CCOC(=O)c1cc2occc2n1CC(=O)NC1CCC(C)CC1 (stereo not given) | -0.513% | – | –
Cc1nn(C)c(C)c1/C=C(\C#N)C(N)=O | -0.94% | 29.1 µM [falling, single point] | –
